{"source": "PubChem BioAssay AID1224826 (NIAID, 2016)", "assay": "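Genes that change LPS-induced Tnf promoter activity in mouse macrophages when knocked down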 (primary screen)", "cells": "RAW264.7 G9 macrophages from mouse bearing reporters for p65 (GFP) and the Tnf promoter (mCherry)", "reagents": "siRNA pool against mouse genes, 100 nM", "time to read-out": "16 h of LPS stimulation, after 2 days of siRNA transfection", "conditions": "bacterial lipopolysaccharide (Salmonella minnesota R595), 10 ng/ml", "read-out": "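Nuclear mCherry signal of the Tnf promoter reporter measured by imaging after background removal, scaled to each plate median and turned into robust z-scores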", "reading the numbers": "Tnf reporter robust z-score: higher = stronger Tnf promoter reporter signal after LPS", "rule for the call": "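a well counts as active at a score of -1.3 or below (Tlr4 knock-down control median) or above 3 (raised signal); controls and wells holding fewer than 50 cells are excluded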", "meaning of the calls": "active = Tnf reporter clearly lowered or raised; inactive = no clear change in Tnf reporter", "note": "Shown is a random part of about 17,000 deposited reagents. About 1,110 of them (6.6%) count as active. 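Active means lowered or raised reporter signal; replicate intensities are raw and not normalised per plate.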 Unmarked entries are inactive. Not all columns of the deposit are shown."}
{"Gene": "Ang4 (angiogenin, ribonuclease A family, member 4)", "Tnf reporter robust z-score": 0.78, "fewer than 50 cells in well": "enough cells in well"}
{"Gene": "Sulf2 (sulfatase 2)", "Tnf reporter robust z-score": -0.49, "fewer than 50 cells in well": "enough cells in well"}
{"Gene": "Tom1l2 (target of myb1-like 2 (chicken))", "Tnf reporter robust z-score": 0.23, "fewer than 50 cells in well": "enough cells in well"}
{"Gene": "Osgin1 (oxidative stress induced growth inhibitor 1)", "fewer than 50 cells in well": "fewer than 50 cells per well; well left out of calls"}
{"Gene": "Brf1", "fewer than 50 cells in well": "fewer than 50 cells per well; well left out of calls"}
{"Gene": "Pcnx4 (pecanex homolog 4)", "Tnf reporter robust z-score": 0.97, "fewer than 50 cells in well": "enough cells in well"}
{"Gene": "Ntn1 (netrin 1)", "Tnf reporter robust z-score": 0.52, "fewer than 50 cells in well": "enough cells in well"}
{"Gene": "Tyw1 (tRNA-yW synthesizing protein 1 homolog (S. cerevisiae))", "Tnf reporter robust z-score": "4.6 (active)", "fewer than 50 cells in well": "enough cells in well"}
{"Gene": "Phlpp1 (PH domain and leucine rich repeat protein phosphatase 1)", "Tnf reporter robust z-score": 0.31, "fewer than 50 cells in well": "enough cells in well"}
{"Gene": "Or10p21 (olfactory receptor family 10 subfamily P member 21)", "Tnf reporter robust z-score": 1.65, "fewer than 50 cells in well": "enough cells in well"}
{"Gene": "Nfe2l2 (nuclear factor, erythroid derived 2, like 2)", "Tnf reporter robust z-score": -0.01, "fewer than 50 cells in well": "enough cells in well"}
{"Gene": "Fmnl3 (formin-like 3)", "Tnf reporter robust z-score": -0.2, "fewer than 50 cells in well": "enough cells in well"}
{"Gene": "Ran (RAN, member RAS oncogene family)", "fewer than 50 cells in well": "fewer than 50 cells per well; well left out of calls"}
{"Gene": "Rpia (ribose 5-phosphate isomerase A)", "Tnf reporter robust z-score": 0.36, "fewer than 50 cells in well": "enough cells in well"}
{"Gene": "Dipk1a (divergent protein kinase domain 1A)", "fewer than 50 cells in well": "fewer than 50 cells per well; well left out of calls"}
{"Gene": "Ppp3ca (protein phosphatase 3, catalytic subunit, alpha isoform)", "Tnf reporter robust z-score": 0.11, "fewer than 50 cells in well": "enough cells in well"}
{"Gene": "Chlsn (cholesin)", "fewer than 50 cells in well": "fewer than 50 cells per well; well left out of calls"}
{"Gene": "Epb41l4a (erythrocyte membrane protein band 4.1 like 4a)", "Tnf reporter robust z-score": -1.18, "fewer than 50 cells in well": "enough cells in well"}
{"Gene": "Ssbp3 (single-stranded DNA binding protein 3)", "fewer than 50 cells in well": "fewer than 50 cells per well; well left out of calls"}
{"Gene": "Rpl19 (ribosomal protein L19)", "fewer than 50 cells in well": "fewer than 50 cells per well; well left out of calls"}
{"Gene": "Ifna4 (interferon alpha 4)", "Tnf reporter robust z-score": -0.2, "fewer than 50 cells in well": "enough cells in well"}

Hits, of those listed so far:
{"Gene": "Tyw1 (tRNA-yW synthesizing protein 1 homolog (S. cerevisiae))", "Tnf reporter robust z-score": "4.6 (active)", "fewer than 50 cells in well": "enough cells in well"}
